According to article PMC4716144:
Results are given in words; binding and its absence hold for the method and conditions named. In cells and extracts the contact can be indirect. Some entries that bind do so weakly or less than the wild type.

Protein sequences, listed by entry. Tags and fused reporters are not part of them. Residues count along the entry.
UniProt P59048: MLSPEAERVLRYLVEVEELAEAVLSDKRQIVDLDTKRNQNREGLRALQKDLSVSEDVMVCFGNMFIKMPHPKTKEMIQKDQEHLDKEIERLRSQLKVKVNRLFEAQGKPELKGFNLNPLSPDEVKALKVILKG
UniProt Q8CG46: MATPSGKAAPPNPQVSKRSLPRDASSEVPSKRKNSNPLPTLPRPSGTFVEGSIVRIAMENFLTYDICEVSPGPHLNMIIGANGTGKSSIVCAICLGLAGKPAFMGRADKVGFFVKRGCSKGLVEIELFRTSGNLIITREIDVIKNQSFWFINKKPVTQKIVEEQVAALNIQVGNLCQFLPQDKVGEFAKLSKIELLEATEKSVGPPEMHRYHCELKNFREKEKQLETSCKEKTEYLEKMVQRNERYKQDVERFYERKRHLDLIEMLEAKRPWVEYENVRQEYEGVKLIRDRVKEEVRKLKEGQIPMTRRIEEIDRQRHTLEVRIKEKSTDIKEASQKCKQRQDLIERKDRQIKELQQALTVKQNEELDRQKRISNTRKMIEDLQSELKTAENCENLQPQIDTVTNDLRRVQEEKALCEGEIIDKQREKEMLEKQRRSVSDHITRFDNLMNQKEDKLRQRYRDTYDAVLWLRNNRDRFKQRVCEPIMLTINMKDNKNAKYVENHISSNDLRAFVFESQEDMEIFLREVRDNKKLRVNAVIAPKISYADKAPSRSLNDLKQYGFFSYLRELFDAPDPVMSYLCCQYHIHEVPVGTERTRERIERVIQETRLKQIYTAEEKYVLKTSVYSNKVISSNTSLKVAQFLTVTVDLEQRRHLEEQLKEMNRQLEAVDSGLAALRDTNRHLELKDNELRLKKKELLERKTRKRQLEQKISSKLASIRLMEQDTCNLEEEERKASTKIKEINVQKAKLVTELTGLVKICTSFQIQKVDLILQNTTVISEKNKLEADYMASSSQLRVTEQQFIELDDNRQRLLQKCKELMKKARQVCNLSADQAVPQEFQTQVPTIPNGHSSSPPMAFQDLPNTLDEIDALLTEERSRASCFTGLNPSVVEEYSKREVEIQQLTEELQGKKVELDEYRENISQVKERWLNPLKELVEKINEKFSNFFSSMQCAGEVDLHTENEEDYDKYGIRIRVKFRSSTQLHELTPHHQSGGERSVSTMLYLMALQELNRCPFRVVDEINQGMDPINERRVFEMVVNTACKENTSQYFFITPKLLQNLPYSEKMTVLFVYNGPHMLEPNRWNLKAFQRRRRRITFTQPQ
UniProt Q8VHK1: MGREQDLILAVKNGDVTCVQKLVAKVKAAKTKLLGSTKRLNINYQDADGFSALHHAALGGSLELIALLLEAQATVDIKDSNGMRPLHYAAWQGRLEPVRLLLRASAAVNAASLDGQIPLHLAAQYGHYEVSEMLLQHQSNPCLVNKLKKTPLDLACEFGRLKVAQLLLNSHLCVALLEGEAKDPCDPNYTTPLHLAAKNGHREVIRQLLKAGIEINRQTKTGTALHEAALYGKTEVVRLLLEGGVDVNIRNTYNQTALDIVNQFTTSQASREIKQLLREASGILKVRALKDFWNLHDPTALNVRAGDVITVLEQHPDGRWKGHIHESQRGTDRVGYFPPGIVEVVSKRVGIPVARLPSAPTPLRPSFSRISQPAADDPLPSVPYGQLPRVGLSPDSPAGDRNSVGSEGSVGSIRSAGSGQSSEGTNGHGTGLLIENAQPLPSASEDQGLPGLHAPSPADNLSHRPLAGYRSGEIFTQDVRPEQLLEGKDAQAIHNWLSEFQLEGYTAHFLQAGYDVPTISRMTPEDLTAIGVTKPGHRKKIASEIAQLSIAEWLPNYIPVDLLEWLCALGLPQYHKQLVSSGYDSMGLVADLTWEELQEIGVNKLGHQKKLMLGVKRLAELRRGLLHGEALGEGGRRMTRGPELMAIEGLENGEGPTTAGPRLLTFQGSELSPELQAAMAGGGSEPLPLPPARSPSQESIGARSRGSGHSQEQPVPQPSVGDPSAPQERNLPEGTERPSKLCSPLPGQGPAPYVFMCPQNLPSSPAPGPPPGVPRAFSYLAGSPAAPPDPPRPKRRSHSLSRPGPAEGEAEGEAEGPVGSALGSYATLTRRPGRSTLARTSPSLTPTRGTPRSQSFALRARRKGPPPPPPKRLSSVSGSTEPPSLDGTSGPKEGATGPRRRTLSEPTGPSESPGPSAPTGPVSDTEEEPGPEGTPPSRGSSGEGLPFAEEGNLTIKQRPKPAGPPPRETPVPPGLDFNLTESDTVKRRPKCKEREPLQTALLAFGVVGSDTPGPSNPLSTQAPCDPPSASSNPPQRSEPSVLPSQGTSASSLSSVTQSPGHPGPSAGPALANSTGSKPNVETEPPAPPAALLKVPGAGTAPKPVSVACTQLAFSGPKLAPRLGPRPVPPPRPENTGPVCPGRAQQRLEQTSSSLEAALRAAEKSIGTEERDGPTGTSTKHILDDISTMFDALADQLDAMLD
UniProt P15208, residues 28-1372: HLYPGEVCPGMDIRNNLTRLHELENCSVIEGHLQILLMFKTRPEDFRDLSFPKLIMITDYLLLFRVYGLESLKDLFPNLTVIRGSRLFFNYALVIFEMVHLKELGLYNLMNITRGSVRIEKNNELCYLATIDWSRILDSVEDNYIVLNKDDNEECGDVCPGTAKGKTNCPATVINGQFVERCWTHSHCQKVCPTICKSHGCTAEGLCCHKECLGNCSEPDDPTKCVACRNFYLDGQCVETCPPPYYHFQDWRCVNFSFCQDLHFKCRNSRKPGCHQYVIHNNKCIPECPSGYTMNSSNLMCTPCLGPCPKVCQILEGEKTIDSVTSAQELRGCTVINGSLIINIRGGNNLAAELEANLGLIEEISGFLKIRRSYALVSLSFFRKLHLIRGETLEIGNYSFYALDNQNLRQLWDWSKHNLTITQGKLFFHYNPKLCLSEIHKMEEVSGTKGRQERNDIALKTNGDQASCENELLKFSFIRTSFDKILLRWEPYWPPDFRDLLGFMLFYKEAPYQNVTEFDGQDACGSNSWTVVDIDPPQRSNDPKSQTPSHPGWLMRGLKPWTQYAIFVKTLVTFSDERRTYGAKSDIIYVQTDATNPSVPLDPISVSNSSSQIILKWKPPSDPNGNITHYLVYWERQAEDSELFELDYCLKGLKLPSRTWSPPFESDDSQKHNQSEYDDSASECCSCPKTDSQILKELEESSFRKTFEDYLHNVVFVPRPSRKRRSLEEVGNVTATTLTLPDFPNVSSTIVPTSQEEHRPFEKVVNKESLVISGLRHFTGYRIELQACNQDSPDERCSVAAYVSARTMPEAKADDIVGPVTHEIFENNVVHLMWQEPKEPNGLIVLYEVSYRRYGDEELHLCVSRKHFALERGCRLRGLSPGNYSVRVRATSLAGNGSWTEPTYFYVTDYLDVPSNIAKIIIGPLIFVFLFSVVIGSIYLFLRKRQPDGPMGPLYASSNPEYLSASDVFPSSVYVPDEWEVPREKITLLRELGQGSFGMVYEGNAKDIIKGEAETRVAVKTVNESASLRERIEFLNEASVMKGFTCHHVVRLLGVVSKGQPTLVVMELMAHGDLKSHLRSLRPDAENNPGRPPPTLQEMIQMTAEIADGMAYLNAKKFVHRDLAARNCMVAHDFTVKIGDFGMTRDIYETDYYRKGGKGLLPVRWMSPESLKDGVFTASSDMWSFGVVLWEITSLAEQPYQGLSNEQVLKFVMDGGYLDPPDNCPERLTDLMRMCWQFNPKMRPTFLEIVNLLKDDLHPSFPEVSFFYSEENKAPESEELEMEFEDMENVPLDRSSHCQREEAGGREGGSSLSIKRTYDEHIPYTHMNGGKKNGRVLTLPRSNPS
UniProt Q9QYR6: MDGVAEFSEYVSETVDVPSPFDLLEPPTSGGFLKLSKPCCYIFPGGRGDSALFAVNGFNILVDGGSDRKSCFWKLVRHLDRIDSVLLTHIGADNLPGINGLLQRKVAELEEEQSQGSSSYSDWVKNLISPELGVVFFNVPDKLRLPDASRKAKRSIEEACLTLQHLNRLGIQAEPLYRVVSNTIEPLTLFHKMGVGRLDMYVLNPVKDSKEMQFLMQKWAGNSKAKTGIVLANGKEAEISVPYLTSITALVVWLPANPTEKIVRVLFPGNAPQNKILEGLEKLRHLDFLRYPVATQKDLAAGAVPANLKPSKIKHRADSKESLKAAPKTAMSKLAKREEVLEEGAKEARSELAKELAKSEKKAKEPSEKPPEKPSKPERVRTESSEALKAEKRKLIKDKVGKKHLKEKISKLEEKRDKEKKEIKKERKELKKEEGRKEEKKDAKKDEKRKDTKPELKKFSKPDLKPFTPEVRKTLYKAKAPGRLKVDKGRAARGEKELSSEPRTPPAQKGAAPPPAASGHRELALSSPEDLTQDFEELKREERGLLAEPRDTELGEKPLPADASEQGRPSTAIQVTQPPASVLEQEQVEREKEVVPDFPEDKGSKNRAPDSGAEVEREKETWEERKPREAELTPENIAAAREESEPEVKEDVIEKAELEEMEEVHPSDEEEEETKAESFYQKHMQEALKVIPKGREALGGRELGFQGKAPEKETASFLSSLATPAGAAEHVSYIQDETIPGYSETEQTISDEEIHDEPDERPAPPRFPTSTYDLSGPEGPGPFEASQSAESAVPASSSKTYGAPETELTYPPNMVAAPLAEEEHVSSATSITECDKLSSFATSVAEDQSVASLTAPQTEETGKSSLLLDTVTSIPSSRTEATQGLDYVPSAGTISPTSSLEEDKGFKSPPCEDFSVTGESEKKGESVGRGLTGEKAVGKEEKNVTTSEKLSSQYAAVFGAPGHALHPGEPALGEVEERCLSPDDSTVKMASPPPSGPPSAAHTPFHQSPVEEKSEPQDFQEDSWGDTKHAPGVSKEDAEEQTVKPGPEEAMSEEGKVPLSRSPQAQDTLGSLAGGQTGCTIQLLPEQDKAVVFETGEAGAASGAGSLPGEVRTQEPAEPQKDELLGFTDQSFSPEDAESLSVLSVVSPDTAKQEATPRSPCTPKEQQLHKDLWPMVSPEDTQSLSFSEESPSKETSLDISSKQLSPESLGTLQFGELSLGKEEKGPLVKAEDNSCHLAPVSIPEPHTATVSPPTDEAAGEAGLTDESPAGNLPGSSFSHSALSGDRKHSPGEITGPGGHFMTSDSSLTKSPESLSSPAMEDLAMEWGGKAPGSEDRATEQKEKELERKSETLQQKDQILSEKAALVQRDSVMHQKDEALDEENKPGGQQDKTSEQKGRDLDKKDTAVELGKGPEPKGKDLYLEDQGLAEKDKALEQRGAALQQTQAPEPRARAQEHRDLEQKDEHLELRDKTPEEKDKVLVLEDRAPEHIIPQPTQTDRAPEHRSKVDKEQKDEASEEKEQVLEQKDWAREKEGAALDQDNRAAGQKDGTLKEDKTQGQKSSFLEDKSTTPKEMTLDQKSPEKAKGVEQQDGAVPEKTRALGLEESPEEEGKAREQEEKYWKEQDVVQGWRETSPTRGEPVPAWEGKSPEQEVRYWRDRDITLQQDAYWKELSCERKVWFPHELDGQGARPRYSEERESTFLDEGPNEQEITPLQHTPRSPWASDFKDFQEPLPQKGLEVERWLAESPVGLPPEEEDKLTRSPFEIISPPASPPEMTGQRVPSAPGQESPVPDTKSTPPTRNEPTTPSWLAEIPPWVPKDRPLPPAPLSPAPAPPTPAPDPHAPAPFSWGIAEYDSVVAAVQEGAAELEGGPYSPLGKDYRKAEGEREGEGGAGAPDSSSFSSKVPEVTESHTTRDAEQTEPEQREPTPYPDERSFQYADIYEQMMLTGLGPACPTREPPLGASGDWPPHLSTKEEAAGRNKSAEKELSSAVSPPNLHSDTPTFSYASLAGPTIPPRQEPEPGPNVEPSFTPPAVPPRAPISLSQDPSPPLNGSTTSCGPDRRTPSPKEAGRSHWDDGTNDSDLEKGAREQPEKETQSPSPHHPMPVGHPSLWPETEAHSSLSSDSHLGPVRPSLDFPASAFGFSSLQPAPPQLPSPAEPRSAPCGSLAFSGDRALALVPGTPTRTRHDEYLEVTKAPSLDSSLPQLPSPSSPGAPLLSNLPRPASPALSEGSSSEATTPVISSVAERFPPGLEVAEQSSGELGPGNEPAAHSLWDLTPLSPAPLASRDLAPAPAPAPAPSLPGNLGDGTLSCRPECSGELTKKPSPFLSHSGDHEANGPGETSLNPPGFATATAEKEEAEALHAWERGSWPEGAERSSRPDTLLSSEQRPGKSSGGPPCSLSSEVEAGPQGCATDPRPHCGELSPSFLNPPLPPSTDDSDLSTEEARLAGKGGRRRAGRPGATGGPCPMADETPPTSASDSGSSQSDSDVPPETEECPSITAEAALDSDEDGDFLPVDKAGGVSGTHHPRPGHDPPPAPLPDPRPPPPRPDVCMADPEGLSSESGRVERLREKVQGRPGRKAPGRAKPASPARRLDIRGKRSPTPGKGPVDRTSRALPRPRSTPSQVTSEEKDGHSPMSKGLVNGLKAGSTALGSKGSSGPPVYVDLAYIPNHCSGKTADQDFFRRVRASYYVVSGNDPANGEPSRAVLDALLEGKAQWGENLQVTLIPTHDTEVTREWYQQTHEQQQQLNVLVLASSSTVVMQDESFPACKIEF

T1: G protein-coupled receptor kinase interacting protein 2 (mouse (endogenous in pancreas)) (UniProt Q9JLQ2)
T1 sequence: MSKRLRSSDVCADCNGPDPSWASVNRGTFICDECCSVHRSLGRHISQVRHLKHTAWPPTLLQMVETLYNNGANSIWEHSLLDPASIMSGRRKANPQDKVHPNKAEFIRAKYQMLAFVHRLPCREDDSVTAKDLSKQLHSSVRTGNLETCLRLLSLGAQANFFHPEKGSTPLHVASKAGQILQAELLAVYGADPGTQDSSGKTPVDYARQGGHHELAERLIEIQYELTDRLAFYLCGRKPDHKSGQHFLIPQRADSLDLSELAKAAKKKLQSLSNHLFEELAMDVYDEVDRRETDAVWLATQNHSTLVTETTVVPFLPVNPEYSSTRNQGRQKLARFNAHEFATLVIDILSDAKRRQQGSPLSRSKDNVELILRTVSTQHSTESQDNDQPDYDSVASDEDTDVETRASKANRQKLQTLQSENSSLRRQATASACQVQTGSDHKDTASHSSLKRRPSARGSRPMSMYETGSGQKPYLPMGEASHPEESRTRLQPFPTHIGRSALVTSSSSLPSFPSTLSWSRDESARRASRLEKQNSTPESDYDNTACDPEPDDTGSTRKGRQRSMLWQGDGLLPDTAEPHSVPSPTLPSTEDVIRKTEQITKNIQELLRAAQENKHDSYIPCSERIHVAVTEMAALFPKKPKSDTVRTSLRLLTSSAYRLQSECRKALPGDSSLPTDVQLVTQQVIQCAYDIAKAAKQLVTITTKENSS


Molecular target: T1, G protein-coupled receptor kinase interacting protein 2 (mouse (endogenous in pancreas))
Test: co-IP; anti-GIT2 immunoprecipitation from lysates of whole pancreas of WT and db/db mice, normalised for GIT2 content, semi-quantitative Western blot of the co-precipitated partner

binding | Molecule
binds | p53 and DNA damage regulated 1 (from UniProt P59048 1-133)
binds | structural maintenance of chromosomes 5 (from UniProt Q8CG46 1-1101)
binds | F-box protein 24 (protein, UniProt Q9D417 1-589) MVKRSCPSCGLEAGSEKKERGNPISVQLFPPELVEHIVSFLPVKDLVALGQTCHYFHEVCDAEGVWRRICRRLSPRIRDQSSGARPWKRAAILNYTKGLYFQAFGGRRRCLSKSVAPMLAHGYRRFLPTKDHVFILDYVGTLFFLKNALVSSTLGQIQWKRACRYVVLCRGAKDFASDPRCDTVYRKYLYVLATREQPAVVGTTGSRACDCVEVYLQSSGQRVFKMTFHHSMSFKQIVLVGQETQRALLLLTEEGKIYSLVVNETQLDQPRSYTVQLALRKVSRCLPHLRVTCMASNQSSTLYITGGTLIPRKQVPKAAELRAPDPPDQGGVYFEVHTPGVYRDLFGTLQAFDPLDHQMPLALSLPAKVLFCALGYNHLGLVDEFGRIFMQGNNRYGQLGTGDKMDRGEPTQVHYLQRPIALWCGLNHSLVLSQTSDFSKELLGCGCGAGGRLPGWPKGSASFVKLHIKVPLCACSLCSTRECLYMLSSHDIEQCPVYRDLPASRVGGSPEPSQGAGAPQDPGGTAQACEEYLSQIHSCPTLQDRMEKMKEIVGWMPLMAAQKDFFWEALDMLQRAAGGAGPDTSTPES

Second part, the molecule before the results:

Molecule | binding
CASK-interacting protein 2 (from UniProt Q8VHK1 1-1201) | binds
insulin receptor (from UniProt P15208 28-1372) | binds
microtubule-associated protein 1 A (from UniProt Q9QYR6 1-2776) | binds
insulin receptor substrate 2 (protein, UniProt P81122 1-1321) MASAPLPGPPASAGGDGPNLNNNNNNNNHSVRKCGYLRKQKHGHKRFFVLRGPGTGGDEASAAGGSPPQPPRLEYYESEKKWRSKAGAPKRVIALDCCLNINKRADAKHKYLIALYTKDEYFAVAAENEQEQEGWYRALTDLVSEGRSGEGGSGTTGGSCSASLPGVLGGSAGAAGCDDNYGLVTPATAVYREVWQVNLKPKGLGQSKNLTGVYRLCLSARTIGFVKLNCEQPSVTLQLMNIRRCGHSDSFFFIEVGRSAVTGPGELWMQADDSVVAQNIHETILEAMKALKELFEFRPRSKSQSSGSSATHPISVPGARRHHHLVNLPPSQTGLVRRSRTDSLAATPPAAKCTSCRVRTASEGDGGAAGGAGTAGGRPMSVAGSPLSPGPVRAPLSRSHTLSAGCGGRPSKVTLAPAGGALQHSRSMSMPVAHSPPAATSPGSLSSSSGHGSGSYPLPPGSHPHLPHPLHHPQGQRPSSGSASASGSPSDPGFMSLDEYGSSPGDLRAFSSHRSNTPESIAETPPARDGSGGELYGYMSMDRPLSHCGRPYRRVSGDGAQDLDRGLRKRTYSLTTPARQRQVPQPSSASLDEYTLMRATFSGSSGRLCPSFPASSPKVAYNPYPEDYGDIEIGSHKSSSSNLGADDGYMPMTPGAALRSGGPNSCKSDDYMPMSPTSVSAPKQILQPRLAAALPPSGAAVPAPPSGVGRTFPVNGGGYKASSPAESSPEDSGYMRMWCGSKLSMENPDPKLLPNGDYLNMSPSEAGTAGTPPDFSAALRGGSEGLKGIPGHCYSSLPRSYKAPCSCSGDNDQYVLMSSPVGRILEEERLEPQATPGAGTFGAAGGSHTQPHHSAVPSSMRPSAIGGRPEGFLGQRCRAVRPTRLSLEGLQTLPSMQEYPLPTEPKSPGEYINIDFGEAGTRLSPPAPPLLASAASSSSLLSASSPASSLGSGTPGTSSDSRQRSPLSDYMNLDFSSPKSPKPSTRSGDTVGSMDGLLSPEASSPYPPLPPRPSTSPSSLQQPLPPAPGDLYRLPPASAATSQGPTAGSSMSSEPGDNGDYTEMAFGVAATPPQPIVAPPKPEGARVASPTSGLKRLSLMDQVSGVEAFLQVSQPPDPHRGAKVIRADPQGGRRRHSSETFSSTTTVTPVSPSFAHNSKRHNSASVENVSLRKSSEGSSTLGGGDEPPTSPGQAQPLVAVPPVPQARPWNPGQPGALIGCPGGSSSPMRRETSVGFQNGLNYIAIDVRGEQGSLAQSQPQPGDKNSWSRTRSLGGLLGTVGGSGASGVCGGPGTGALPSASTYASIDFLSHHLKEATVVKE | binds
